# Test results published in PubChem BioAssay AID504444 (National Center for Advancing Translational Sciences (NCATS), 2011).
# Out of some 360,000 compounds screened, about 7,500 (2.1%) were called active. This list was built around the results that the source calls inconclusive (neither active nor inactive); the mix of calls is not that of the screen. Calls come from the whole dose curve; as a rule, active = well fitted inhibition curve with a large enough effect; inconclusive = small, poorly fitted or top-dose-only effect, or effect the other way; inactive = flat fitted curve, though single readings scatter. Potencies beside an inconclusive call are fits to weak or partial responses and may not hold up.
# Experiment: Nrf2 qHTS screen for inhibitors; note: nearly all actives have a fitted effect of over 60% in size
# Conditions: A549 ARE-Fluc reporter, luciferase luminescence, 18-24 h; activity change, negative = inhibition: at 46 µM (top of the series)
# Outline: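 Quantitative HTS in A549 cells stably bearing an antioxidant response element-firefly luciferase construct. Inhibition of Nrf2-driven transcription was scored by luminescence after 18-24 h of compound exposure at 37 °C.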
# % is set by controls: 0 for no effect and ±100 for the full control effect; potency is the fitted concentration of half-maximal effect.
SMILES,Potency,"activity change, negative = inhibition"
COc1ccc2c(-c3ccccc3)cc3nnnn3c2c1,"inconclusive: 29.1 µM [falling, partial curve, poor fit]",
c1ccc(-c2oc3ncnc(NCCN4CCOCC4)c3c2-c2ccccc2)cc1,"inconclusive: 29.1 µM [falling, single point]",
CCc1nnc(NC(=O)CSc2nnc(CNC(=O)c3ccccc3F)n2C)s1,"inconclusive: 6.51 µM [falling, partial curve, poor fit]",
CC(=O)OCN(C#N)c1nc(N(C)C)nc(N(C)C)n1,"inconclusive: 32.6 µM [activator, partial curve, poor fit]",
CCN1/C(=C/C(=O)c2ccco2)Sc2ccccc21,"inconclusive: 6.51 µM [activator, partial curve, poor fit]",
Cc1ccc(Cl)cc1OCC(=O)NCCOC(=O)Nc1sc(=S)n(C)c1C,"inconclusive: 23.1 µM [falling, single point]",
c1ccc(-c2cc3ccccc3cn2)cc1,"inconclusive: 6.51 µM [activator, partial curve]",
Cc1cccc(NC(=O)CN2c3ccccc3S(=O)(=O)c3ccccc32)c1C,,inactive: -18.6%
CCC(=O)N1CCc2cc(S(=O)(=O)NC(C(=O)NCCc3ccc(Cl)cc3)C(C)C)ccc21 (centres undefined),"inconclusive: 6.51 µM [falling, single point]",
CCOc1ccccc1NC(=O)C1COc2ccccc2O1 (centres undefined),,inactive: 15.3%
Cc1ccc(C(=O)N/N=C\c2cccnc2)s1,"inconclusive: 32.6 µM [falling, single point]",
Cc1nc2ccccc2c(C(=O)O)c1-c1ccccn1,,inactive: 0.203%
CC(C)(C)c1ccc(C(=O)NCCC(=O)Nc2ccc3c(c2)OCCO3)cc1,"inconclusive: 11.6 µM [activator, partial curve, poor fit]",
Cc1cc(C)cc(OCC(=O)NNC(=O)c2ccccn2)c1,active: 10.3 µM,
COC(=O)c1ccc(NC(=O)c2cc(-c3ccncc3)nc3ccccc23)cc1,,inactive: 16.6%
CC(C)CCn1c(CN(C)Cc2ccccc2)nc2c1c(=O)n(C)c(=O)n2C,"inconclusive: 23.1 µM [falling, single point]",
COc1ccc(-c2cc(OC(=O)c3ccc(F)cc3)c3c(C)oc(C)c3c(=O)c2)cc1OC,,inactive: 18%
Cc1cc2nc(SCCN3CCOCC3)[nH]c2cc1C,"inconclusive: 20.6 µM [activator, partial curve]",
COc1ccc(-c2noc(CSc3nnc(-c4ccccc4)n3-c3ccc(F)cc3)n2)c(OC)c1,"inconclusive: 29.1 µM [falling, single point]",

# 3 compounds already listed, ordered by length of the SMILES, falling.
SMILES,Potency,"activity change, negative = inhibition"
COC(=O)c1ccc(NC(=O)c2cc(-c3ccncc3)nc3ccccc23)cc1,,inactive: 16.6%
Cc1ccc(Cl)cc1OCC(=O)NCCOC(=O)Nc1sc(=S)n(C)c1C,"inconclusive: 23.1 µM [falling, single point]",
Cc1ccc(C(=O)N/N=C\c2cccnc2)s1,"inconclusive: 32.6 µM [falling, single point]",
